Construct, isoform or probe ends are uncertain for at least one entry. Weaker means in comparison with the reference protein, sequence or condition of that experiment.
Biological target: MarR, H2Sn-treated (Escherichia coli MG1655) (UniProt P27245)
Assay: EMSA
Conditions: complete shift at 600 nM, single-dimer complex not detected, EMSA: 10 mM Tris, 50 mM KCl, 5% glycerin, pH 8.0, 25 C, 30 min, 20 nM probe, 15 uL, 6% native PAGE, recombinant protein, protein details: N-terminal His (pET-30a), label: none (SYBR green I stain), probe letters rebuilt from the primers and the genome

By UniProt entry, the sequences of proteins in these tests, tags left out. Where a name states a change or a piece, a line headed by the entry shows the natural chain unless it says otherwise.
UniProt P27245: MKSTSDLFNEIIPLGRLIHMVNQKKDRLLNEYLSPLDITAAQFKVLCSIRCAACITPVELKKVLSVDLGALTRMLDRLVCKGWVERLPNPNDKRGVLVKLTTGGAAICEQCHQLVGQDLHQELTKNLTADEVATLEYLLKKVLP

## CATCGCATTGAACAAAACTTGAACCGATTTAGCAAAACGTGGCATCGGTCAATTCATTCATTTGACTTATACTTGCCTGGGCAATATTATCCCCTGCAAC (double strand) [marRAB promoter EMSA probe]
  binding result: binds more weakly

From paper PMC8614764, “Sulfane Sulfur Is a Strong Inducer of the Multiple Antibiotic Resistance Regulator MarR in Escherichia coli” (Antioxidants, 2021)
